For part of its entries the source gives two or more results. This is not the full list of results. An entry can have further records. Values given together differ, and nothing given here explains why; they may come from other doses, times, organisms or constructs than stated.
Tested on: Rat2 fibroblasts stably transformed with v-Src/Hu c-Src fusion gene
Experiment: Anchorage independent Src-transformed fibroblast proliferation assay
Assay type: cell-based, rat
Conditions: read-out: Src Cells IC50 μM or % inhib at 10 μM (IC50 values); Table 3

COc1cc(Nc2c(C#N)cnc3cc(-c4ccc(CN5C[C@H](C)NC[C@H]5C)cc4)sc23)c(Cl)cc1Cl [Example 114, 7-[(2,4-dichloro-5-methoxyphenyl)amino]-2-(4{[(2R,5S)-2,5-dimethylpiperazin-1-I]methyl}phenyl)thieno[3,2-b]pyridine-6-carbonitrile]
IC50: 598 nM and 245 nM

— US7276519B2, “Thieno[3,2-b]pyridine-6-carbonitriles and thieno[2,3-b]pyridine-5-carbonitriles as protein kinase inhibitors” (Wyeth, priority 2002, dated 2007)
